{
  "source": "patent US9199976B2",
  "about": "“Haematopoietic-prostaglandin D2 synthase inhibitors” (The University of Queensland, priority 2010, dated 2015)",
  "key": {"[1]": {"test_system": "PGD2 production from MEG-01S human megakaryocytes", "assay": "A23187-inducible PGD2 production in PMA-differentiated MEG-01S (EIA)", "assay_type": "cell-based", "method": "(§1) All bone marrow-derived macrophages (BMM) were obtained by culturing bone marrow cells from the femurs of 6 to 8 week old C57BL/6 male mice in RPMI 1640 medium (Invitrogen Life Technologies, Carlsbad, Calif., USA) supplemented with 10% Fetal calf serum (Invitrogen) 20 U/ml penicillin and 20 μg/ml streptomycin (Invitrogen), 2 mM L-glutamine (Glutamax-1, Invitrogen) in the presence of 10^4 U/ml (100 ng/mL) recombinant human CSF-1 (a gift from Chiron, Emeryville, Calif.) on bacteriological plastic plates for 7 days. The human megakaryocytic cell line MEG-01S was obtained from the American Type Culture Collection. MEG-01S were maintained in the same media as for BMM, supplemented with 1 mM Sodium Pyruvate (Invitrogen).\nBMM were seeded overnight at 2×10^5 cells/ml in 24 well plates before treatment with compound at either 10 μM or 0.1-100 μM for 24 h in the presence or absence of lipopolysaccharide (LPS) from Salmonella Minnesota (Sigma-Aldrich) at a final concentration of 10 ng/ml. […] Supernatants were collected and samples were analysed for PGD2 using Prostaglandin D2 Mox Express EIA kits, PGE2 using Prostaglandin E2 Express EIA kits, the prostacyclin derivative 6-keto PGF1α using the 6-keto Prostaglandin F1α EIA Kit and the Thromboxane A2 derivative TXB2 using the Thromboxane B2 Express EIA kit (Cayman Chemical) according to the manufacturer's instructions. […]"}, "[2]": {"test_system": "PGD2 production in mouse primary bone marrow-derived macrophages (BMM)", "assay": "PGD2 production in LPS-activated BMM (EIA)", "assay_type": "cell-based", "method": "as §1, with “(Invitrogen). […] The average PGD2 production from three independent experiments plus SEM is shown. * indicates p<0.05 versus LPS treatment alone. (Student's t test).” for “(Invitrogen).”"}},
  "note": "At least one structure is not confirmed: it was looked up by name or label, or the drawing left a doubt.",
  "data": [
    {"smiles": "c1ccc(C(OC2CCN(CCCc3nnn[nH]3)CC2)c2ccccc2)cc1", "note": "[Compound 1, reference compound]", "values": [
      {"measurement": "inhibition of A23187-inducible PGD2 production at 100 μM", "setting": "[1]", "result": "very modest activity"},
      {"measurement": "differential effect in inhibition of PGD2 versus PGE2, 6-keto PGF1α or TXB2 (selectivity)", "setting": "[2]", "result": "no differential effect"}
    ]}
  ]
}
